Results on one molecule are retold here after paper PMC13156748.

In the experiment the target is FLAG-tagged cH2A (N-terminally truncated H2A, representing cleavage at L23). Put plainly: affinity purification with mass spectrometry; FLAG antibody on protein G magnetic beads; lysate (~600 ug) of mESCs expressing FLAG-tagged FL-H2A or cH2A, overnight at 4 °C; IP buffer 20 mM Tris pH 7.5, 137 mM NaCl, 1% NP-40, with Benzonase; on-bead digestion, LC-MS; IgG as control.

These are yes or no findings as the source states them, for the method shown. In cells and extracts the contact can be indirect. A yes stands for co-enrichment or nearness to the bait. Other partners may have been found.

B1: Trim21 (protein, UniProt Q62191 1-470)
chain: MSPSTTSKMSLEKMWEEVTCSICLDPMVEPMSIECGHCFCKECIFEVGKNGGSSCPECRQQFLLRNLRPNRHIANMVENLKQIAQNTKKSTQETHCMKHGEKLHLFCEEDGQALCWVCAQSGKHRDHTRVPIEEAAKVYQEKIHVVLEKLRKGKELAEKMEMDLTMQRTDWKRNIDTQKSRIHAEFALQNSLLAQEEQRQLQRLEKDQREYLRLLGKKEAELAEKNQALQELISELERRIRGSELELLQEVRIILERSGSWNLDTLDIDAPDLTSTCPVPGRKKMLRTCWVHITLDRNTANSWLIISKDRRQVRMGDTHQNVSDNKERFSNYPMVLGAQRFSSGKMYWEVDVTQKEAWDLGVCRDSVQRKGQFSLSPENGFWTIWLWQDSYEAGTSPQTTLHIQVPPCQIGIFVDYEAGVVSFYNITDHGSLIYTFSECVFAGPLRPFFNVGFNYSGGNAAPLKLCPLKM
Regarding B1, the binding entry is “binds”.
